Assay results reported in article PMC7982521, “Studies on the Changes of Pharmacokinetics Behaviors of Phytochemicals and the Influence on Endogenous Metabolites After the Combination of Radix Bupleuri and Radix Paeoniae Alba Based on Multi-Component Pharmacokinetics and Metabolomics” (Frontiers in Pharmacology, 2021).

Tested on: endogenous metabolites
Assay: Metabolomics: dynamic response of endogenous metabolites in rat plasma after oral RB-RPA (UPLC-HRMS, PCA/PLS-DA/OPLS-DA, relative distance)
Type: in vivo, Sprague-Dawley rats
Details: mean ± SD, n = 6

Molecule | level of endogenous metabolite normalized by IS (glycyrrhizin) (0.083 h after oral RB-RPA) | level of endogenous metabolite normalized by IS (glycyrrhizin) (0.5 h after oral RB-RPA) | level of endogenous metabolite normalized by IS (glycyrrhizin) (0.75 h after oral RB-RPA) | level of endogenous metabolite normalized by IS (glycyrrhizin) (1 h after oral RB-RPA) | level of endogenous metabolite normalized by IS (glycyrrhizin) (1.5 h after oral RB-RPA) | level of endogenous metabolite normalized by IS (glycyrrhizin) (3 h after oral RB-RPA) | level of endogenous metabolite normalized by IS (glycyrrhizin) (5 h after oral RB-RPA) | level of endogenous metabolite normalized by IS (glycyrrhizin) (8 h after oral RB-RPA) | level of endogenous metabolite normalized by IS (glycyrrhizin) (12 h after oral RB-RPA) | level of endogenous metabolite normalized by IS (glycyrrhizin) (24 h after oral RB-RPA)
CC(C)[C@H](N)C(=O)O [Valine] | 5.508±1.792 | 6.285±1.921 | 7.021±2.191 | 8.651±2.624 | 9.214±2.415 | 9.008±2.149 | 8.771±3.012 | 7.363±3.131 | 6.411±2.341 | 5.913±2.041
C[C@H](CCC(=O)O)[C@H]1CC[C@H]2[C@@H]3[C@H](O)C[C@@H]4C[C@H](O)CC[C@]4(C)[C@H]3C[C@H](O)[C@]12C [Cholic acid] | 0.040±0.007 | 0.031±0.010 | 0.028±0.007 | 0.021±0.006 | 0.016±0.003 | 0.019±0.002 | 0.025±0.005 | 0.029±0.007 | 0.037±0.009 | 0.041±0.012
NCCCC(=O)O [gamma-Aminobutyric acid] | 0.057±0.016 | 0.078±0.021 | 0.084±0.029 | 0.091±0.033 | 0.121±0.038 | 0.109±0.031 | 0.092±0.034 | 0.112±0.044 | 0.074±0.024 | 0.055±0.020
CC/C=C\C/C=C\C/C=C\CCCCCCCC(=O)O [α-Linolenic acid] | 0.031±0.011 | 0.062±0.012 | 0.087±0.013 | 0.058±0.020 | 0.056±0.011 | 0.049±0.011 | 0.047±0.015 | 0.042±0.015 | 0.036±0.012 | 0.038±0.010
L-(-)-Asparagine | 0.049±0.011 | 0.068±0.014 | 0.075±0.012 | 0.085±0.017 | 0.051±0.014 | 0.077±0.011 | 0.058±0.008 | 0.031±0.005 | 0.064±0.006 | 0.059±0.010
N[C@@H](Cc1ccc(O)cc1)C(=O)O [L-Tyrosine] | 5.212±1.453 | 3.206±1.734 | 6.349±1.349 | 5.413±1.022 | 5.559±1.183 | 2.645±0.892 | 4.952±1.005 | 5.214±1.325 | 6.525±2.109 | 5.311±1.444
C[C@H](CCC(=O)NCCS(=O)(=O)O)[C@H]1CC[C@H]2[C@@H]3[C@H](O)C[C@@H]4C[C@H](O)CC[C@]4(C)[C@H]3CC[C@]12C [Taurochenodeoxycholic acid] | 0.013±0005 | 0.012±0.005 | 0.009±0.002 | 0.010±0.004 | 0.008±0.001 | 0.007±0.001 | 0.009±0.003 | 0.011±0.004 | 0.008±0.003 | 0.010±0.002
C[N+](C)(C)CCO [Choline] | 2.434±0.264 | 1.432±0.743 | 1.954±0.533 | 3.481±0.768 | 3.734±1.059 | 4.066±1.235 | 3.893±1.188 | 3.622±1.365 | 3.283±0.845 | 2.717±0.974
NC(Cc1cnc[nH]1)C(=O)O (racemic) [DL-Histidine] | 0.291±0.036 | 0.312±0.088 | 0.201±0.092 | 0.365±0.076 | 0.292±0.043 | 0.321±0.071 | 0.387±0.085 | 0.282±0.065 | 0.221±0.083 | 0.232±0.095
O=C(O)CC(O)(CC(=O)O)C(=O)O [Citric acid] | 0.097±0.008 | 0.088±0.023 | 0.079±0.018 | 0.066±0.027 | 0.071±0.010 | 0.050±0.009 | 0.047±0.006 | 0.069±0.011 | 0.121±0.032 | 0.087±0.029
C=C(CC(=O)O)C(=O)O [Itaconic acid] | 0.011±0.003 | 0.015±0.004 | 0.019±0.005 | 0.024±0.005 | 0.017±0.007 | 0.020±0.007 | 0.016±0.009 | 0.014±0.006 | 0.010±0.003 | 0.012±0.004
CC(=O)N[C@@H](CC(C)C)C(=O)O [N-Acetyl-L-leucine] | 0.020±0.004 | 0.019±0.003 | 0.021±0.002 | 0.017±0.008 | 0.015±0.007 | 0.024±0.002 | 0.022±0.003 | 0.021±0.03 | 0.016±0.09 | 0.020±0.004
